Results are given in words; binding and its absence hold for the method and conditions named. Binding seen in cells or lysates may run through a third protein. Some results given as binding are weak or reduced against the parent protein; the word gives no strength. Where a sequence is shown, tags or fusion partners need not be part of it.
Target: Myc-MAVS (mitochondrial antiviral signaling protein) (UniProt Q7Z434)
Assay: co-IP

Chains of the proteins cited; added tags and fusions are not shown.
UniProt Q7Z434: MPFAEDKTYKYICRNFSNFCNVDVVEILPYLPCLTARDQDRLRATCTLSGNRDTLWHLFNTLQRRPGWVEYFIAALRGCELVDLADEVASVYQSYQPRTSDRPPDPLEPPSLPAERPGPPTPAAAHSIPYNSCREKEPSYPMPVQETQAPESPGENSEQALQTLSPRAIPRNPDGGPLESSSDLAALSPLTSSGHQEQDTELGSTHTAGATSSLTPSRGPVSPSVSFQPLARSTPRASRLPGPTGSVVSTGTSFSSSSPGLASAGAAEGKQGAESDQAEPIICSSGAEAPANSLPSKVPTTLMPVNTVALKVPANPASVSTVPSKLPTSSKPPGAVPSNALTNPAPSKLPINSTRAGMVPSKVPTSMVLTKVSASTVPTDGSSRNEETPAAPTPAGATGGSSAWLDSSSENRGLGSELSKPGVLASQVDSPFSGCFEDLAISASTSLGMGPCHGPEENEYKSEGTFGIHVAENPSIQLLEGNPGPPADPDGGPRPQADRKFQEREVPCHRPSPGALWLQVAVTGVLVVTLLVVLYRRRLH

B1: HA-MDA5 (melanoma differentiation–associated protein 5) (protein, UniProt Q9BYX4 1-1025)
chain: MSNGYSTDENFRYLISCFRARVKMYIQVEPVLDYLTFLPAEVKEQIQRTVATSGNMQAVELLLSTLEKGVWHLGWTREFVEALRRTGSPLAARYMNPELTDLPSPSFENAHDEYLQLLNLLQPTLVDKLLVRDVLDKCMEEELLTIEDRNRIAAAENNGNESGVRELLKRIVQKENWFSAFLNVLRQTGNNELVQELTGSDCSESNAEIENLSQVDGPQVEEQLLSTTVQPNLEKEVWGMENNSSESSFADSSVVSESDTSLAEGSVSCLDESLGHNSNMGSDSGTMGSDSDEENVAARASPEPELQLRPYQMEVAQPALEGKNIIICLPTGSGKTRVAVYIAKDHLDKKKKASEPGKVIVLVNKVLLVEQLFRKEFQPFLKKWYRVIGLSGDTQLKISFPEVVKSCDIIISTAQILENSLLNLENGEDAGVQLSDFSLIIIDECHHTNKEAVYNNIMRHYLMQKLKNNRLKKENKPVIPLPQILGLTASPGVGGATKQAKAEEHILKLCANLDAFTIKTVKENLDQLKNQIQEPCKKFAIADATREDPFKEKLLEIMTRIQTYCQMSPMSDFGTQPYEQWAIQMEKKAAKEGNRKERVCAEHLRKYNEALQINDTIRMIDAYTHLETFYNEEKDKKFAVIEDDSDEGGDDEYCDGDEDEDDLKKPLKLDETDRFLMTLFFENNKMLKRLAENPEYENEKLTKLRNTIMEQYTRTEESARGIIFTKTRQSAYALSQWITENEKFAEVGVKAHHLIGAGHSSEFKPMTQNEQKEVISKFRTGKINLLIATTVAEEGLDIKECNIVIRYGLVTNEIAMVQARGRARADESTYVLVAHSGSGVIEHETVNDFREKMMYKAIHCVQNMKPEEYAHKILELQMQSIMEKKMKTKRNIAKHYKNNPSLITFLCKNCSVLACSGEDIHVIEKMHHVNMTPEFKELYIVRENKALQKKCADYQINGEIICKCGQAWGTMMVHKGLDLPCLKIRNFVVVFKNNSTKKQYKKWVELPITFPNLDYSECCLFSDED
B1 was tested, and the binding was “binds”.

Reference: article PMC9837762
